Data from patent US20030105010A1, “Crystals and structures of ArnB aminotransferases” (priority 2001, published 2003).
At least one structure is not confirmed: it was looked up by name or label, or the drawing left a doubt.

By UniProt entry, the sequences of proteins in these tests, tags left out. Where a name states a change or a piece, a line headed by the entry shows the natural chain unless it says otherwise.
UniProt Q8ZNF3: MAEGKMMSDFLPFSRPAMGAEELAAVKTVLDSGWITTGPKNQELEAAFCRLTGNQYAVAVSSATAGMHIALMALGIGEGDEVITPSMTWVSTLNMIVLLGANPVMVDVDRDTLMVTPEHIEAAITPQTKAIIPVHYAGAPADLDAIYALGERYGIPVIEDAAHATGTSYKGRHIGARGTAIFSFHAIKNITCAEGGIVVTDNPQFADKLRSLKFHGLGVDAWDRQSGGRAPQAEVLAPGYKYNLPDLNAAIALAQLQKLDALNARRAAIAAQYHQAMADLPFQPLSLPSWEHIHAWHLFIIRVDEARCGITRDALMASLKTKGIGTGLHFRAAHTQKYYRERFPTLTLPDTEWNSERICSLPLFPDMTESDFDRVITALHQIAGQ

Biological target: T1, Salmonella typhimurium ArnB (Salmonella typhimurium, UniProt Q8ZNF3)
T1 construct: made in house; host or cells: E. coli BL21 (DE3), vector pSB3 (modified pET26b)
Assay: ArnB aminotransfer half-reaction assay (absorbance of PMP/PLP cofactor forms at 340 nm / 430 nm)
Assay type: biochemical
Method: Aminotransfer half-reactions were measured at an enzyme concentration of 23 μM and substrates were added to a final concentration of 250 μM, unless otherwise indicated. Reaction progress was followed by moniotoring the absorbance maxima of the PMP or PLP cofactor forms at 340 nm or 430 nm, respectively. Resulting time courses were fit to eq. 1, describing a single-exponential decay,
Yobs=((Y0−Y∞)e^−kt)+Y∞ (Eq. 1),
where Yobs=observed signal, Y0=signal at time zero, Y∞=signal at infinite time, k is the apparent first-order rate constant, and t is time. Nonlinear least-squares fits were performed with Kaleidagraph v3.51 (Synergy Software, Reading, Pa.).

Row | Structure (SMILES) | increase in aminotransferase activity (pyruvate as amino acceptor, apparently compared with oxaloacetate, absorbance at 430 nm) | reduction in aminotransfer rate from that of α-ketoglutarate (E•PMP to E-PLP conversion, absorbance increase at 430 nm, α-ketoacid as amino acceptor substrate)
1 | CC(=O)C(=O)O [pyruvate] | 4 fold | 
2 | O=C(O)CC(=O)C(=O)O [Oxaloacetate] |  | 250 fold
